Source: patent US4085114A, “1,2-Benzoisoxazole derivatives and the production thereof” (Shionogi & Co., Ltd., priority 1975, dated 1978)
Values after ≈ are worked out from the molar mass of the structure shown.

Assays:
isolated atria = assay: β-Blocking activities in the isolated atria (inhibition of positive inotropic effect of isoproterenol); assay type: cell-based, Guinea-pigs; settings: Cavia porcellus, read-out: fifty percent inhibitory concentration on the positive inotropic effect of isoproterenol (IC50), 1. Atria
Protocol: (§1) Guinea-pigs of either sex, weighing between 400 - 700 g each, were killed by a sharp blow on the head. Their atria and trachea were quickly excised and freed of excess tissues.
1. β-Blocking activities in the isolated atria:
The isolated atria were mounted in a 30 ml organ bath filled with Krebs-Ringer-bicarbonate solution, which was constantly bubbled with a gas mixture of 95% oxygen and 5% carbon dioxide at 30° C. Spontaneous contractions of the atria were isometrically recorded on the polygraph (RM-150, Nihon Kohden Kogyo) by mean of a F-D pick-up (N. K. K.) and the number of contractions in one minute was recorded on the home-made pulse counter triggered by the atrial contractions.
[…]. The benzisoxazole derivatives and propranolol were preincubated with the atria for 10 minutes before the administration of isoproterenol. The fifty percent inhibitory concentration of the benzisoxazole derivatives and propranolol on the positive inotropic effect of isoproterenol (IC50) were graphically determined.

isolated trachea = assay: β-Blocking activities in the isolated trachea (inhibition of isoproterenol-induced relaxation of tracheal chain); assay type: cell-based, Guinea-pigs; settings: Cavia porcellus, read-out: fifty percent inhibitory concentration on the relaxation of tracheal chain by isoproterenol (IC50), 2. Trachea
Protocol: as §1
2. β-Blocking activities in the isolated trachea:
The isolated tracheal tube was cut into round slices consisting of two or three cartilage rings. After 8 such rings were linked, side by side, with an instant adhesive (Aron Alpha, Toa Gosei Kagaku), they were mounted in a 30 ml organ bath filled with Krebs-Ringer-bicarbonate solution, which was constantly bubbled with a gas mixture of 95% oxygen and 5% carbon dioxide at 37° C.
The isotonic relaxation of the tracheal chain by the administration of isoproterenol was recorded on the kymographic paper. […]. The benzisoxazole derivatives and propranolol were preincubated with the tracheal chain for 1 hour before the administration of isoproterenol. The fifty percent inhibitory concentration of the benzisoxazole derivatives and propranolol on the relaxation of tracheal chain by isoproterenol (IC50) were graphically determined.

**Q.** What does the source list for CC(C)NCC(O)COc1cccc2ccccc12 (centres unmarked) [Propranolol, reference compound]?
**A.** IC50 (isolated atria): 12 ng/mL (≈ 0.0463 µM); IC50 (isolated trachea): 2.8 ng/mL (≈ 0.0108 µM)
